From patent publication US12383628B2 (priority 2016, dated 2025)

system: L929 mouse fibroblasts; assay: Cytotoxicity, Live/Dead viability staining on hydrogels (Example 9); assay type: cell-based; details: 24 h after seeding
Experimental: Hydrogels were prepared at 1, 2 or 3 mg/100 μL as duplicate in a 96-well ULA plate (Cat #CORN3474; Corning-Costar, 60 μL each well). The gels were photographed and pre-equilibrated before seeding with cells. For equilibration, gels were incubated at room temperature in 40 μL of L929 culture medium with double-strength Anti-Anti (Cat #15240062, GIBCO) for 2 h prior to seeding with cells. The equilibration medium was removed before cell seeding and retained to examine if the gels dissolved (even partially) or disintegrated into the culture medium. Next, […] mouse fibroblasts (ATCC) were seeded onto hydrogels at a concentration of 200,000 cells/ml in a volume of 50 μl. The cells were photographed immediately after seeding, observed by microscopy 2 h post-seeding and then observed and photographed at 24 h post-seeding. The cell culture medium consisted of MEM+GlutaMAX I (Cat #41090-036; GIBCO); 10% foetal bovine serum (Cat #12003C; SAFC, Sigma), 2× Anti-Anti (Cat #[…]) and 1× Non-Essential Amino Acids (Cat #41090-036; GIBCO).
Bright field microscopy was performed through use of a IX71 inverted microscope with NIS-Elements F3.0 imaging software (Olympus). The TE2000 Eclipse fluorescent microscope with NIS-Elements AR3.2 software (Nikon) was used for fluorescence imaging microscopy. Automated cell counting was performed on the NC-200 NucleoCounter using proprietary lysis and stabilising reagents and cassettes (ChemoMetec).
The viability and distribution of cells was assessed using a LIVE/DEAD Viability/Cytotoxicity Kit *for Mammalian cells* (Live-Dead Kit), (Cat #13224; Molecular Probes). Briefly, a working solution of live/dead solution was made as per manufacturer's instructions by adding 1.25 μl of Calcein AM (solution A) to 2.5 ml of pre-warmed PBS. The solution was thoroughly mixed by vortex and 2.5 μl of Ethidium homodimer (solution B), was added before vortexing a second time to mix. Excess medium was removed and the gels rinsed with 20 μl of warm PBS before a 40 μl of Live/Dead kit working solution was added to each well. The plate was incubated in a 37° C. cell culture incubator for 20 min before viewing using a fluorescent microscope. Green fluorescence was emitted from the cytoplasm of viable cells (excitation/emission ˜495 nm/˜515 nm) while dead cell nuclei fluoresced red (excitation/emission ˜495/˜635 nm) allowing a distinction to be made between viable and dead cells.

Molecule | Cell morphology on hydrogel
WEWQWK-NH2 [peptide 12, H-Trp-Glu-Trp*-Gln-Trp-Lys-NH2] | clear instances of attachment and spreading
NCCCC[C@H](NC(=O)[C@H](Cc1ccccc1)NC(=O)[C@H](CCC(N)=O)NC(=O)[C@H](Cc1ccccc1)NC(=O)C[C@H](Cc1ccccc1)NC(=O)[C@H](CCC(=O)O)NC(=O)[C@@H](N)Cc1ccccc1)C(N)=O [peptide 27, H-Phe-Glu-13;;-homo-Phe-Phe-Gln-Phe-Lys-NH2] (H-FE[β3hF]FQFK-NH2) | slightly rounded
NCCCC[C@@H](N)C(=O)N[C@H](Cc1ccccc1)C(=O)N[C@H](CCC(N)=O)C(=O)N[C@H](Cc1ccccc1)C(=O)N[C@H](CCC(=O)O)C(=O)N[C@H](Cc1ccccc1)C(N)=O [peptide 24, H-DLys-DPhe-DGln-DPhe*-DGlu-DPhe-NH2] (H-[dK][dF][dQ][dF][dE][dF]-NH2) | slightly rounded
FQFQFK-NH2 [peptide 16, H-Phe-Gln-Phe*-Gln-Phe-Lys-NH2] | clear instances of attachment and spreading
FEFQFK-NH2 [peptide 2, H-Phe-Glu-Phe*-Gln-Phe-Lys-NH2] | slightly rounded
KFQFEF-NH2 [peptide 18, H-Lys-Phe-Gln-Phe*-Glu-Phe-NH2] | slightly rounded

Square brackets hold non-standard residues; d marks the D form. Ends that are not written are not given here. Peptide text beside a SMILES is read from it. β3hF = N[C@H](CC(=O)O)Cc1ccccc1
